Results taken from PubChem BioAssay AID330 (DTP/NCI, 2004).
The list shows only some results of the screen, not a fair sample: it gathers tests that were run many times, whatever their T/C, doses with no T/C, and many T/C values between a quarter and a half above the control. Other doses and runs of a compound stand elsewhere. T/C is the treated group as % of the vehicle group. Some entries give survivors of the animals treated and no T/C: the source holds a T/C of zero for them, seemingly a mark for toxic or unscored doses. Some doses without a T/C left all or most animals alive at the check, yet need not have been tolerated: survival well below the control is almost never listed, so the zero probably covers shortened survival too. Counts of survivors are from the toxicity check (mostly the fifth day) where no day follows; animals may have died later. Schedule codes are those of the source, taken here to give the interval after Q, in days (D) or hours (H), and the number of doses after X. Additions like (4×) stand for listed records that agree. Some entries were tested several times; their values stand side by side, smallest first. For survival time, the PubChem record calls one and a half times the control and up active, and a quarter to a half above the control has no call in these data; cut-offs in other NCI protocols can differ. Some T/C values are followed by the survivors on the day toxicity was checked, most often the fifth; where none is given, no animal had died by that day.

Tested on: P388 leukemia ip, CD2F1 mice, survival T/C
Assay: NCI In Vivo Anticancer Drug Screen. Data for tumor model P388 Leukemia (intraperitoneal) in CD2F1 (CDF1) mice
Conditions: T/C endpoint: median survival time, higher T/C = longer survival

For `COc1cccc2c1C(=O)c1c(O)c3c(c(O)c1C2=O)C[C@@](O)(C(=O)CO)C[C@@H]3OC1CC(N)C(O)C(C)O1` (some centres not stated), the T/C (dose: 1.08 mg/kg/injection, schedule: Q01DX009 (ip), vehicle: saline, evaluated on day 30) was 157 % of control, the T/C (dose: 1.08 mg/kg/injection, schedule: Q01DX009 (ip), vehicle: saline, evaluated on day 45) was 186 % of control and the T/C (dose: 1.08 mg/kg/injection, schedule: Q01DX009 (ip), vehicle: saline, evaluated on day 60) was 233 and 236 % of control. For the same molecule, the T/C (dose: 1.25 mg/kg/injection, schedule: Q01DX001 (ip), vehicle: water, evaluated on day 30) was 154 and 188 % of control, the T/C (dose: 1.25 mg/kg/injection, schedule: Q01DX001 (ip), vehicle: water, evaluated on day 45) was 144, 154, 155, 158, 159 (2×), 167, 173 % of control and the T/C (dose: 1.25 mg/kg/injection, schedule: Q04DX003 (ip), vehicle: saline) was 132 % of control. For the same molecule, the T/C (dose: 1.3 mg/kg/injection, schedule: Q01DX004 (ip), vehicle: saline) was 145 % of control, the T/C (dose: 1.3 mg/kg/injection, schedule: Q04DX002 (ip), vehicle: saline) was 145 % of control and the T/C (dose: 1.3 mg/kg/injection, schedule: Q04DX002 (ip), vehicle: water) was 138 % of control. For the same molecule, the T/C (dose: 1.3 mg/kg/injection, schedule: Q04DX003 (ip), vehicle: saline, evaluated on day 9) was 124 % of control, the T/C (dose: 1.3 mg/kg/injection, schedule: Q04DX003 (ip), vehicle: saline, evaluated on day 45) was 163 [7 of 8 alive] and 182 % of control and the T/C (dose: 1.3 mg/kg/injection, schedule: Q04DX003 (ip), vehicle: saline, evaluated on day 60) was 192 % of control. The T/C (dose: 1.5 mg/kg/injection, schedule: Q04DX003 (ip), vehicle: saline) was 103, 105, 129 [survivors not given], 194 % of control [survivors not given], the T/C (dose: 1.5 mg/kg/injection, schedule: Q04DX003 (ip), vehicle: water) was 133 % of control and the T/C (dose: 1.56 mg/kg/injection, schedule: Q01DX001 (ip), vehicle: saline) was 149 % of control. The T/C (dose: 1.56 mg/kg/injection, schedule: Q01DX009 (ip), vehicle: water, evaluated on day 30) was 86, 91, 95, 100, 101, 112, 192, 200, 205, 210, 240, 242, 257 % of control, the T/C (dose: 1.56 mg/kg/injection, schedule: Q01DX009 (ip), vehicle: water, evaluated on day 45) was 92, 99, 100, 105, 109, 111, 119, 122 (2×), 196, 213, 215, 216 (2×), 224, 227 % of control (2×) and the survivor count (dose: 1.56 mg/kg/injection, schedule: Q01DX009 (ip), vehicle: water) was 3 of 6 and 6 of 6 (2×). For the same molecule, the T/C (dose: 1.6 mg/kg/injection, schedule: Q01DX004 (ip), vehicle: saline) was 147 % of control, the T/C (dose: 1.62 mg/kg/injection, schedule: Q04DX003 (ip), vehicle: saline, evaluated on day 45) was 118, 155, 156, 162, 169, 180, 182, 185, 188 (2×), 196 % of control and the T/C (dose: 1.62 mg/kg/injection, schedule: Q04DX003 (ip), vehicle: saline, evaluated on day 60) was 163 % of control. The T/C (dose: 1.8 mg/kg/injection, schedule: Q01DX001 (ip), vehicle: saline) was 139 % of control, the T/C (dose: 1.8 mg/kg/injection, schedule: Q01DX009 (ip), vehicle: saline, evaluated on day 30) was 182 % of control and the T/C (dose: 1.8 mg/kg/injection, schedule: Q01DX009 (ip), vehicle: saline, evaluated on day 45) was 205 % of control. The T/C (dose: 1.8 mg/kg/injection, schedule: Q01DX009 (ip), vehicle: saline, evaluated on day 60) was 163 and 259 % of control, the T/C (dose: 2.0 mg/kg/injection, schedule: Q01DX001 (ip), vehicle: other) was 141 % of control [9 of 10 alive] and the T/C (dose: 2.0 mg/kg/injection, schedule: Q01DX001 (ip), vehicle: saline with Tween-80) was 132 % of control. The T/C (dose: 2.0 mg/kg/injection, schedule: Q01DX001 (ip), vehicle: saline, evaluated on day 3) was 160 % of control, the T/C (dose: 2.0 mg/kg/injection, schedule: Q01DX001 (ip), vehicle: saline, evaluated on day 5) was 93, 100, 102 (2×), 118, 119, 131, 134 % of control and the T/C (dose: 2.0 mg/kg/injection, schedule: Q01DX001 (ip), vehicle: saline, evaluated on day 7) was 129, 143, 148 % of control. For the same molecule, the T/C (dose: 2.0 mg/kg/injection, schedule: Q01DX001 (ip), vehicle: saline, evaluated on day 9) was 124 and 130 % of control, the T/C (dose: 2.0 mg/kg/injection, schedule: Q01DX001 (ip), vehicle: saline, evaluated on day 30) was 129 and 189 % of control and the T/C (dose: 2.0 mg/kg/injection, schedule: Q01DX001 (ip), vehicle: saline, evaluated on day 35) was 139 % of control. The T/C (dose: 2.0 mg/kg/injection, schedule: Q01DX001 (ip), vehicle: saline, evaluated on day 45) was 119 % of control, the T/C (dose: 2.0 mg/kg/injection, schedule: Q01DX001 (ip), vehicle: saline, evaluated on day 60) was 122 % of control and the T/C (dose: 2.0 mg/kg/injection, schedule: Q01DX005 (sc), vehicle: water) was 130 % of control. The T/C (dose: 2.0 mg/kg/injection, schedule: Q01DX009 (ip), vehicle: saline, evaluated on day 5) was 222 and 300 % of control, the T/C (dose: 2.0 mg/kg/injection, schedule: Q01DX009 (ip), vehicle: saline, evaluated on day 30) was 112 and 127 % of control and the T/C (dose: 2.0 mg/kg/injection, schedule: Q01DX009 (ip), vehicle: saline, evaluated on day 45) was 214, 216, 228, 305 % of control. For the same molecule, the T/C (dose: 2.0 mg/kg/injection, schedule: Q01DX009 (ip), vehicle: saline, evaluated on day 60) was 103, 182, 264 % of control, the survivor count (dose: 2.0 mg/kg/injection, schedule: Q01DX009 (ip), vehicle: saline) was 10 of 10 and the T/C (dose: 2.0 mg/kg/injection, schedule: Q01DX009 (ip), vehicle: water, evaluated on day 5) was 136 % of control. The T/C (dose: 2.0 mg/kg/injection, schedule: Q01DX009 (ip), vehicle: water, evaluated on day 30) was 90, 95, 98, 99, 106 (2×), 107, 108, 109 (2×), 110 (2×), 111, 115 (2×), 116, 117, 132, 151, 153, 163, 181, 190, 194 (2×), 202, 215, 223, 250, 254, 257 [5 of 6 alive], 278 % of control [5 of 6 alive], the T/C (dose: 2.0 mg/kg/injection, schedule: Q01DX009 (ip), vehicle: water, evaluated on day 45) was 87, 89, 101, 104 (2×), 107, 114, 121, 132, 141, 165 (2×), 180, 191, 192, 210, 219, 236, 259, 267 % of control and the T/C (dose: 2.0 mg/kg/injection, schedule: Q01DX009 (ip), vehicle: water, evaluated on day 60) was 113 % of control. The survivor count (dose: 2.0 mg/kg/injection, schedule: Q01DX009 (ip), vehicle: water) was 6 of 6 (2×), the T/C (dose: 2.0 mg/kg/injection, schedule: Q04DX003 (ip), vehicle: saline, evaluated on day 5) was 172, 189, 200, 216, 231 % of control and the T/C (dose: 2.0 mg/kg/injection, schedule: Q04DX003 (ip), vehicle: saline, evaluated on day 8) was 137 % of control. For the same molecule, the T/C (dose: 2.0 mg/kg/injection, schedule: Q04DX003 (ip), vehicle: saline, evaluated on day 9) was 136 % of control, the T/C (dose: 2.0 mg/kg/injection, schedule: Q04DX003 (ip), vehicle: saline, evaluated on day 30) was 108, 116, 117 (2×), 118 (3×), 119, 120, 122, 128, 130, 133, 135, 137, 138, 144, 153, 179 % of control and the T/C (dose: 2.0 mg/kg/injection, schedule: Q04DX003 (ip), vehicle: saline, evaluated on day 45) was 168, 176, 205 % of control. For the same molecule, the T/C (dose: 2.0 mg/kg/injection, schedule: Q04DX003 (ip), vehicle: water, evaluated on day 30, list 1 of 2) was 109 [5 of 6 alive], 110, 112, 113, 115 [5 of 6 alive], 119, 120, 121 (2×), 122 (2×), 123 (2×), 124, 126 (3×), 127, 128 (2×), 129 (2×), 132, 133, 134, 135 [5 of 6 alive on day 9], 137 (2×), 138, 142, 145 (2×), 154, 161, 164 % of control.
